Measured values: publication PMC4993455
These are yes or no findings as the source states them, for the method shown. For some of these results: Binding seen in cells or lysates may run through a third protein. Some results given as binding are weak or reduced against the parent protein; the word gives no strength. Values belong to the substance of their own block, whether it stands above or below them.

Protein sequences, listed by entry. Tags and fused reporters are not part of them. Lines headed by an entry give the natural chain unless they say otherwise; changes in a name come on top. Chains listed by the source or under a name are the forms on record and can include a tag or linker. Residues count along the entry.
UniProt P13444: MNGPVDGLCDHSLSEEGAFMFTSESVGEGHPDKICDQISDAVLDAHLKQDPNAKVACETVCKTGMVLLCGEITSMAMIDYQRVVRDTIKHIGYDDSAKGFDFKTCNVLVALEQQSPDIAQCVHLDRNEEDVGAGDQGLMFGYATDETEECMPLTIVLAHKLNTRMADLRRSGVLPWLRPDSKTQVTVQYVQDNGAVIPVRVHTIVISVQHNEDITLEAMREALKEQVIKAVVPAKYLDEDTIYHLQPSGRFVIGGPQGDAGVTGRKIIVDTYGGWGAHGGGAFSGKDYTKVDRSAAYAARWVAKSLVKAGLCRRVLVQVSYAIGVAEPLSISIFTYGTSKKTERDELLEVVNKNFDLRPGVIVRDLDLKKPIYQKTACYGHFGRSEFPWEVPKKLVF
UniProt Q642A0: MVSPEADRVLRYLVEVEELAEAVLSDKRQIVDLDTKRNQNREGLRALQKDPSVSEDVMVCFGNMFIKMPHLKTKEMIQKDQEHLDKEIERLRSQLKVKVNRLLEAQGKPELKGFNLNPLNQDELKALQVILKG
GST-ΔN-PDRG1: residues 26-133 of Q642A0
GST-ΔNC-PDRG1: residues 26-106 of Q642A0
GST-ΔC-PDRG1 (Q642A0, form named): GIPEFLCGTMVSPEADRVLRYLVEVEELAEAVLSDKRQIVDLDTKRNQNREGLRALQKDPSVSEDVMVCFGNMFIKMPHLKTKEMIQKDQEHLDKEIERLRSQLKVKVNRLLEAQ
HA-PDRG1 (Q642A0, form named): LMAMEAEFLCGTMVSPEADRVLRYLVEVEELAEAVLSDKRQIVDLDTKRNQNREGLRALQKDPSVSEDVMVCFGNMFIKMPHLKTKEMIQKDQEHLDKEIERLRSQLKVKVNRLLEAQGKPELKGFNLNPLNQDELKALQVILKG

Experiments:
[1] = target: methionine adenosyltransferase α1 (MATα1), yeast two-hybrid fusion from pGBKT7-MAT1A (rat) (UniProt P13444); assay: two-hybrid; AH109 yeast, bait pGBKT7-MAT1A, preys in pACT2 (rat liver Matchmaker cDNA library); growth on high stringency -Ade/-His/-Leu/-Trp SC medium; verified by cotransformation
[2] = target: GST-ΔC-PDRG1 (rat) (UniProt Q642A0); assay: pull-down; Glutathione-Sepharose loaded with GST-PDRG1 or truncated forms from E. coli extracts and washed; incubated 1 hour at 4°C with E. coli extracts overexpressing MATα1 (500 μg) plus excess GST extract (5 mg); blot with anti-MATα1; only the target purified
[3] = target: GST-ΔN-PDRG1 (rat) (UniProt Q642A0); assay: as above
[4] = target: GST-ΔNC-PDRG1 (rat) (UniProt Q642A0); assay: as above
[5] = target: HA-PDRG1 (rat) (UniProt Q642A0); assay: co-IP; total lysates of CHO and HEK-293T cells transiently cotransfected with pFLAG-MAT and pHA-PDRG1; anti-FLAG M2 Affinity Gel or anti-HA on protein A Sepharose, overnight at 4°C; 50 mM Tris/HCl pH 7.5, 150 mM NaCl, 1 mM EDTA, 1% NP-40, 1 mM DTT
[6] = target: FLAG-MATα1 (rat) (UniProt P13444); assay: co-IP; nuclear fractions of transiently cotransfected COS-7 and HEK 293T cells; anti-FLAG M2 Affinity Gel overnight at 4°C, blot with anti-HA
[7] = target: FLAG-MATα1 (rat) (UniProt P13444); assay: co-IP; cytosolic fractions of transiently cotransfected COS-7 and HEK 293T cells; anti-FLAG M2 Affinity Gel overnight at 4°C, blot with anti-HA
[8] = target: FLAG-MATα1 (rat) (UniProt P13444); assay: SEC; analytical gel filtration of nuclear fractions (100 μl) of HEK 293T cells overexpressing HA-PDRG1, FLAG-MATα1 or both on Superose 12 10/300 GL; fractions analysed by dot-blot
[9] = target: FLAG-MATα1 (rat) (UniProt P13444); assay: co-IP; total lysates of CHO and HEK-293T cells transiently cotransfected with pFLAG-MAT and pHA-PDRG1; anti-FLAG M2 Affinity Gel or anti-HA on protein A Sepharose, overnight at 4°C; 50 mM Tris/HCl pH 7.5, 150 mM NaCl, 1 mM EDTA, 1% NP-40, 1 mM DTT

Substance: FLAG-MATα1 (from UniProt P13444 1-397) (enzyme)
binding [5]: binds

Substance: HA-PDRG1 (from UniProt Q642A0 1-133)
binding [6]: binds | binding [7]: no binding (condition: in cytosolic fractions) | binding [8]: binds | binding [9]: binds

The remaining lines, values ahead:

binding [1]: binds
Substance: p53 and DNA damage-regulated gene 1 protein (PDRG1), yeast two-hybrid prey in pACT2 (from UniProt Q642A0 1-133)

binding [2]: binds | binding [3]: binds | binding [4]: binds
Substance: recombinant methionine adenosyltransferase α1 (MATα1) (from UniProt P13444 1-397) (enzyme)

binding [1]: binds
Substance: methionine adenosyltransferase α1 (MATα1), yeast two-hybrid fusion from pGBKT7-MAT1A (from UniProt P13444 1-397) (enzyme)
